The other results are listed elsewhere or left out.
Key:
Assay in all cases: log2 fold change, soluble protein after heating vs DMSO (PISA); higher = thermal stabilisation; K562 lysate, 10 uM; active = over 0.2 and 3.5 SD of the protein, either way, in both replicates (recomputed)
[1] = compound: C1=CC=C(C=C1)[C@H](COC2=CC3=C(C=C2)NC(=O)N3)NC(=O)C4=CC=CN(C4=O)CC5=CC(=C(C=C5)F)F
Method in brief: (§1)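 Values give the log-two fold change in thermal stability against solvent controls, from duplicates. Crude K562 extract at 1 mg/mL protein, made by dounce homogenisation in PBS pH 7.4 with 1 mM MgCl2, was treated with 10 μM compound for 30 min. After 3 min heating across 48°C-58°C, aliquots were pooled, adjusted to 0.5% NP-40 at 4°C and centrifuged at 21,000xg for 90 min. The supernatant was measured by TMTpro 16plex LC-MS/MS with channel sums equalised.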

Sequences of proteins named here, by UniProt entry; tags and fusion partners are left off. A change or cut given only in a name is not applied to a line headed by its entry.
UniProt Q9NW64: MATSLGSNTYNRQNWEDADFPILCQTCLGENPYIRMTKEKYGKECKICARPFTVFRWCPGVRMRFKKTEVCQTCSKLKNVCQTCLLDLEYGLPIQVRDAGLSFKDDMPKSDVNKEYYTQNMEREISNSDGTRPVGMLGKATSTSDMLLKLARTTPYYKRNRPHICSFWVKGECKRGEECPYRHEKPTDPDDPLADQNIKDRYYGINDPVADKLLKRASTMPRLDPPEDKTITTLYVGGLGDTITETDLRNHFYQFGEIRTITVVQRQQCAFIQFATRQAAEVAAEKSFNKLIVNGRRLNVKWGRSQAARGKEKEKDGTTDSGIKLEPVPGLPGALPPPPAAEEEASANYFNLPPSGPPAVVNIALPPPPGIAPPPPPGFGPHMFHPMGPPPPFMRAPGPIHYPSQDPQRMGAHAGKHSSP
UniProt Q15291, whole entry, looked up: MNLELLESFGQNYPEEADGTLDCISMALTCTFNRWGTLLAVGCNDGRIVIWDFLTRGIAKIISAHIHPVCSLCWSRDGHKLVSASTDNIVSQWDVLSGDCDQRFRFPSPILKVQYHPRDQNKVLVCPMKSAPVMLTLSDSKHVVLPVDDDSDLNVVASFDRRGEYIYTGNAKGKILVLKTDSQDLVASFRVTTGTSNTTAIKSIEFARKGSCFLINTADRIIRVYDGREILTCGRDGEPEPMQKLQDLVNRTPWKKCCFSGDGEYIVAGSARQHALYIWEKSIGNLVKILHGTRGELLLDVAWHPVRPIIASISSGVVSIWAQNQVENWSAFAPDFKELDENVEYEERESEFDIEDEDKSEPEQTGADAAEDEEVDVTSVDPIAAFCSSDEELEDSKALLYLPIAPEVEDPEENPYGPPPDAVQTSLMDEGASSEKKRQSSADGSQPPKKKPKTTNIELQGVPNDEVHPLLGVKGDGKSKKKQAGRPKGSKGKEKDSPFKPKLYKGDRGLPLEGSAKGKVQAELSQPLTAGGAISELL
UniProt P46063: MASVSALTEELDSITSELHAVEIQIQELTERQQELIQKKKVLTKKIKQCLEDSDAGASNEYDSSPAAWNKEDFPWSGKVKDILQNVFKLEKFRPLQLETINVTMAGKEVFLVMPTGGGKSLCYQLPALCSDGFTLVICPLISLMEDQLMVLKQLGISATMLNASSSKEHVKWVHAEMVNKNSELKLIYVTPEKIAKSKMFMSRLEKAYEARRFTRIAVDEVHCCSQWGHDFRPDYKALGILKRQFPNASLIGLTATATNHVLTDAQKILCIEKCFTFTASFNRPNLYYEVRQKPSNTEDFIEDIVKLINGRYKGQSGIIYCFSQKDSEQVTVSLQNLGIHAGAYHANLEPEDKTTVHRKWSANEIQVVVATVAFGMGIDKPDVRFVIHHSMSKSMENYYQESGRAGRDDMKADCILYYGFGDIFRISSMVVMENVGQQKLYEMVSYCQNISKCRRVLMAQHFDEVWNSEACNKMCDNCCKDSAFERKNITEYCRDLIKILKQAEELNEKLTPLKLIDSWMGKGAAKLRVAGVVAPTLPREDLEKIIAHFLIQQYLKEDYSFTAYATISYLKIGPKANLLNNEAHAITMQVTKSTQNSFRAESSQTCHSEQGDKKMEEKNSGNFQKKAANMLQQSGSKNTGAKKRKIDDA
UniProt O00287: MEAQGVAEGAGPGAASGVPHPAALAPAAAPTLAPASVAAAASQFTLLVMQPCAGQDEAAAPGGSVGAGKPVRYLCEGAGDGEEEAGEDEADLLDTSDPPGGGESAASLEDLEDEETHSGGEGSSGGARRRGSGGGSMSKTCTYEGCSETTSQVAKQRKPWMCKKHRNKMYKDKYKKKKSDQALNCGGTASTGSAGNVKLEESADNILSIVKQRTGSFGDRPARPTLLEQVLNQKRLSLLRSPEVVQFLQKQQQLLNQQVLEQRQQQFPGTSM
UniProt Q04864: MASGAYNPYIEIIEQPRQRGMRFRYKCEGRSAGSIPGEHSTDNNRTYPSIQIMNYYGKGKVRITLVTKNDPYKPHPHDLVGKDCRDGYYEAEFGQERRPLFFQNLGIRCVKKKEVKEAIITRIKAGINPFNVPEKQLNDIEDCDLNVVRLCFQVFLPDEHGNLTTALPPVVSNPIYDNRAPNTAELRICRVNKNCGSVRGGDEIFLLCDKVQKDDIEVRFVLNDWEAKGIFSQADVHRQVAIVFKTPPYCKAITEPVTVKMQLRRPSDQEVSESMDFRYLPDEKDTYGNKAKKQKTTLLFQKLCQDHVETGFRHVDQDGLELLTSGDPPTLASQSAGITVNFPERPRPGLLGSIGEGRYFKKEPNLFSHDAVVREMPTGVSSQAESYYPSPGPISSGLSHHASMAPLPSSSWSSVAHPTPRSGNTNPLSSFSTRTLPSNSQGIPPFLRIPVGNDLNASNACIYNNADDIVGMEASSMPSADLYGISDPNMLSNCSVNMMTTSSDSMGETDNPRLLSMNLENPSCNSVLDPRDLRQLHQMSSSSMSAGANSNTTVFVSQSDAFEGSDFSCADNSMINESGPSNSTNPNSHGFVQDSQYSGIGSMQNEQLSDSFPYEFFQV
UniProt Q99666, whole entry, looked up: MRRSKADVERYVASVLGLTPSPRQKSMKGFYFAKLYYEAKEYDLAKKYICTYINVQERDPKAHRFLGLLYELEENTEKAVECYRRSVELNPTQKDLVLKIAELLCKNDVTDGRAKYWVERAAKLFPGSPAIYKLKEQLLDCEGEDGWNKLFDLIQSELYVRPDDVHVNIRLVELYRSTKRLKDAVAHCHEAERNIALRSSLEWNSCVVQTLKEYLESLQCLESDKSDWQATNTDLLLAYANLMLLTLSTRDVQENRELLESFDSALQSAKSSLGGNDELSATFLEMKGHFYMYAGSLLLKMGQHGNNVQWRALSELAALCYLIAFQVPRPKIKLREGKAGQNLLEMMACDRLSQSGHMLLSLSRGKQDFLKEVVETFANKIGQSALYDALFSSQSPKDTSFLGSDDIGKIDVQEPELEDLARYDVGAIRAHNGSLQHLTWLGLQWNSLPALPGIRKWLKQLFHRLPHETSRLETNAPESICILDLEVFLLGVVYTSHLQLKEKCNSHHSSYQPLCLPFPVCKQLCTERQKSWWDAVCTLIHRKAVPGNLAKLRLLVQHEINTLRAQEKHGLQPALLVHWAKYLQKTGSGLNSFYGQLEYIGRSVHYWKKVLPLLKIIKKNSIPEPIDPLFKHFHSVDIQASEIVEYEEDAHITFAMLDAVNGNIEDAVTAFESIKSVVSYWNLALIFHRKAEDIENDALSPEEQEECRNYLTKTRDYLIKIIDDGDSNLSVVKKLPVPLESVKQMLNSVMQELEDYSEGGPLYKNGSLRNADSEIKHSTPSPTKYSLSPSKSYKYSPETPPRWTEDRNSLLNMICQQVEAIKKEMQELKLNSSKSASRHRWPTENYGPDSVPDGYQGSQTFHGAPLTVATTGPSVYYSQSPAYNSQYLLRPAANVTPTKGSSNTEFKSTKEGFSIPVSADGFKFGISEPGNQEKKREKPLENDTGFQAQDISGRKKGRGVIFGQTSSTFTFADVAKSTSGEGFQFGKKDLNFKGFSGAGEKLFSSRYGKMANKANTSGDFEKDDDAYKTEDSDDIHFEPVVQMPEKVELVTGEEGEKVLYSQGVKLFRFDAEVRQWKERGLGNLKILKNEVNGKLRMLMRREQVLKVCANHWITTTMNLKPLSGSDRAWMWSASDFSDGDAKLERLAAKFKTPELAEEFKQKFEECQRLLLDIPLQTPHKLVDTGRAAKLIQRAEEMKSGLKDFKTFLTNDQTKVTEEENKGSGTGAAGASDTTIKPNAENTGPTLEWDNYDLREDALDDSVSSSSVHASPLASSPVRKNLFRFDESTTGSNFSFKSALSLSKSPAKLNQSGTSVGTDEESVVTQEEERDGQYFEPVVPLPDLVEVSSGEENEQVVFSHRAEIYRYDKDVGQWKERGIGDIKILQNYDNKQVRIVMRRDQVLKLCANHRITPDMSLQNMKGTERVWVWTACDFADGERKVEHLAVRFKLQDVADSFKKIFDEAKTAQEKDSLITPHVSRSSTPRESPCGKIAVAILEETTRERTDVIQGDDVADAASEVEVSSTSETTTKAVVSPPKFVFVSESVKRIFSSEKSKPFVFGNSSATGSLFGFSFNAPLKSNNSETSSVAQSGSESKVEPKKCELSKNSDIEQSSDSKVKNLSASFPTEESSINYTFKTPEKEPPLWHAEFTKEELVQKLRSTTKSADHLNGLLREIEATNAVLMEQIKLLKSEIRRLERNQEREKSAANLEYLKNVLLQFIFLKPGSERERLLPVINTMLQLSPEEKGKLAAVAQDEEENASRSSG
UniProt Q14498: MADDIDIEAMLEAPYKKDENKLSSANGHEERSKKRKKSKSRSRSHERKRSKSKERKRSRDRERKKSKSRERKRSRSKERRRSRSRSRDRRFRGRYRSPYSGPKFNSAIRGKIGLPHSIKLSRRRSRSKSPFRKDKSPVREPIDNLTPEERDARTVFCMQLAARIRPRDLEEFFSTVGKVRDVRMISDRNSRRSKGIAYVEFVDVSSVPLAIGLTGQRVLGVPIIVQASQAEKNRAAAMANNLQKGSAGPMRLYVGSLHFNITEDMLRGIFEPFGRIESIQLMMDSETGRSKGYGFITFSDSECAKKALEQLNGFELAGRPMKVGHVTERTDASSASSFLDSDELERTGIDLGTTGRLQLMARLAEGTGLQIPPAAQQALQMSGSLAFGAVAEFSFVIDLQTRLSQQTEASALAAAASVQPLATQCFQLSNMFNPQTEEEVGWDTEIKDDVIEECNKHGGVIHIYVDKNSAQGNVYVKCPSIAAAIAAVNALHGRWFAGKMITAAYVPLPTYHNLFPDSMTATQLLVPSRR
UniProt Q9BWE0: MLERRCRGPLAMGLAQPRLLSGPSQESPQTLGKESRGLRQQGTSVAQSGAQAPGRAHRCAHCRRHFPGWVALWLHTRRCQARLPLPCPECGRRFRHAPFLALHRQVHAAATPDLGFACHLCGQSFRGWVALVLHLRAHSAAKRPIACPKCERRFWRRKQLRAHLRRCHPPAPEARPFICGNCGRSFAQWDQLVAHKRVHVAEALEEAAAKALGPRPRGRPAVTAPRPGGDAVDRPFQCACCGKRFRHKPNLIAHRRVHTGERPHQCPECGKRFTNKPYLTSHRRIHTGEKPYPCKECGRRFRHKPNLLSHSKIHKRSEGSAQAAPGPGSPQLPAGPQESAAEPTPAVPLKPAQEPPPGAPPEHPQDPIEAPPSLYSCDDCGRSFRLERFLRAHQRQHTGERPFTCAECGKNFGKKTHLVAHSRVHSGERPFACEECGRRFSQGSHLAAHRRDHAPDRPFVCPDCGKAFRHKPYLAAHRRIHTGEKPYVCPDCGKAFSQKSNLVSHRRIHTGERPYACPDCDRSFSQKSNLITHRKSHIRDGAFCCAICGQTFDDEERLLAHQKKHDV
UniProt Q02094: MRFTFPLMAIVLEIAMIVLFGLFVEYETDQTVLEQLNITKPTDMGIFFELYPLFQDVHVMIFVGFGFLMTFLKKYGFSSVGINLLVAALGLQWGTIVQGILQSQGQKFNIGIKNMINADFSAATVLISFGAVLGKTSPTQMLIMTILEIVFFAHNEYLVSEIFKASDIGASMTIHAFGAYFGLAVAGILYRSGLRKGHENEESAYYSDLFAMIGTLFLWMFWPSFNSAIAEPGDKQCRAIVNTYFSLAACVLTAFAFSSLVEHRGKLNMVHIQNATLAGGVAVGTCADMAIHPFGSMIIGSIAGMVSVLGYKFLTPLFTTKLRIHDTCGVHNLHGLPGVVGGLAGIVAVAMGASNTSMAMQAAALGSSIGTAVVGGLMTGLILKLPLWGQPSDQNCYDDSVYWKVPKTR
UniProt O15258: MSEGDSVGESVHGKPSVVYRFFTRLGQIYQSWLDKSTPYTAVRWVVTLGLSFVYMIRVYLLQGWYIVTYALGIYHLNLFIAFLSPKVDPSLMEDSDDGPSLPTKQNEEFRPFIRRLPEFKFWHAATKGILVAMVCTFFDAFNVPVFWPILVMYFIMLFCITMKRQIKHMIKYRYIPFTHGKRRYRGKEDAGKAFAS
UniProt Q86U06: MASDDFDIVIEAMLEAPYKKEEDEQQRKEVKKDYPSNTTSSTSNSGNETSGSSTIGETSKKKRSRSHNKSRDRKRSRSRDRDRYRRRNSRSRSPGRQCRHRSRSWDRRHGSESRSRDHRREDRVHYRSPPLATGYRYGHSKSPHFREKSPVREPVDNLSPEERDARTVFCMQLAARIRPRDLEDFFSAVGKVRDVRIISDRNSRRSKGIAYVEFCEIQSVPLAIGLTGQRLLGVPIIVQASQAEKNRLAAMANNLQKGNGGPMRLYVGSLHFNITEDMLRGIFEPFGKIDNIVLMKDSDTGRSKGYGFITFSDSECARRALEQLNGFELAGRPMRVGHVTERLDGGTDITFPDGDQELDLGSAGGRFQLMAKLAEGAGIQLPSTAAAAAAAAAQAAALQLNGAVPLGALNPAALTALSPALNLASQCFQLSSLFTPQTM

[2] = compound: CC1=C(SC2=C1C(=N[C@H](C3=NN=C(N32)C)CC(=O)N)C4=CC=C(C=C4)Cl)C
Method in brief: as §1

[3] = compound: CC1=C2C(=CC=C1)N=C(N(C2=O)C3=CC=CC=C3C)CN4C=NC5=C(N=CN=C54)N
Method in brief: as §1

[4] = compound: Cc1sc2c(c1C)C(c1ccc(Cl)cc1)=N[C@@H](CC(=O)OC(C)(C)C)c1nnc(C)n1-2
Method in brief: as §1

[5] = compound: c1ccc([C@@H]2C[C@H]2NC2CCNCC2)cc1
Method in brief: as §1

Measured: log2 fold change

RAVER1 (UniProt E9PAU2)
inactive: [1] 0.102 | [2] -0.092 | [3] 0.014 | [4] 0.041 | [5] 0.001

RBBP8 isoform 2 (UniProt Q99708)
inactive: [1] -0.031 | [2] -0.133 | [3] 0.093 | [4] 0.046 | [5] -0.014

RBMY1E (UniProt A6NEQ0)
inactive: [1] 0.107 | [2] -0.012 | [3] 0.057 | [4] -0.026 | [5] -0.077

RBM22 (UniProt Q9NW64)
inactive: [1] -0.073 | [2] 0.012 | [3] 0.036 | [4] 0.072 | [5] 0

RASSF5 (UniProt Q8WWW0)
inactive: [1] -0.059 | [2] 0.021 | [3] -0.06 | [4] -0.183 | [5] -0.044

RBBP5 (UniProt Q15291)
inactive: [1] 0.047 | [2] -0.009 | [3] -0.004 | [4] 0.006 | [5] -0.032

RECQL (UniProt P46063)
inactive: [1] 0.057 | [2] -0.015 | [3] 0.006 | [4] -0.013 | [5] 0.035

RCOR3 isoform 3 (UniProt Q9P2K3)
inactive: [1] -0.026 | [2] 0.009 | [3] 0.046 | [4] 0.011
active: [5] 0.394

RBM12 (UniProt Q9NTZ6)
inactive: [1] -0.032 | [2] 0.028 | [3] -0.009 | [4] -0.002 | [5] 0.013

RFXAP (UniProt O00287)
inactive: [1] 0.081 | [2] 0.008 | [3] -0.02 | [4] -0.1 | [5] -0.077

RCCD1 (UniProt A6NED2)
inactive: [1] 0.105 | [2] 0.06 | [3] -0.004 | [4] 0.002 | [5] 0.002

RDX (UniProt P35241)
inactive: [1] -0.029 | [2] -0.036 | [3] 0.003 | [4] 0.025 | [5] 0.148

Pulled one by one from the entries so far, two records:
RCCD1 (UniProt A6NED2)
inactive: [1] 0.105 | [2] 0.06 | [3] -0.004 | [4] 0.002 | [5] 0.002

RCOR3 isoform 3 (UniProt Q9P2K3)
inactive: [1] -0.026 | [2] 0.009 | [3] 0.046 | [4] 0.011
active: [5] 0.394

Additional entries

REL isoform 2 (UniProt Q04864)
inactive: [1] 0.017 | [2] 0 | [3] -0.003 | [4] 0.031 | [5] 0.03

RGPD5 (UniProt Q99666)
inactive: [1] -0.025 | [2] -0.02 | [3] -0.028 | [4] 0.023 | [5] -0.064

RBM39 (UniProt Q14498)
inactive: [1] -0.018 | [2] 0.018 | [3] 0.036 | [4] 0.069 | [5] 0.092

REPIN1 isoform 4 (UniProt Q9BWE0)
inactive: [1] 0.002 | [2] 0.039 | [3] -0.014 | [4] -0.041 | [5] -0.019

RCAN1 (UniProt P53805)
inactive: [1] 0.141 | [2] -0.074 | [3] -0.063 | [4] -0.026 | [5] 0.026

RHAG (UniProt Q02094)
inactive: [1] 0.033 | [2] -0.076 | [3] 0.145 | [4] -0.066 | [5] -0.143

RER1 (UniProt O15258)
inactive: [1] -0.007 | [2] -0.004 | [3] 0.037 | [4] 0.058 | [5] -0.024

RBPJ (UniProt Q06330)
inactive: [1] 0.044 | [2] -0.013 | [3] 0.036 | [4] -0.028 | [5] 0.003

RASA2 (UniProt Q15283)
inactive: [1] -0.07 | [2] 0.045 | [3] 0.058 | [4] 0.025 | [5] 0.037

RBM42 (UniProt Q9BTD8)
inactive: [1] -0.014 | [2] -0.003 | [3] 0.107 | [4] 0.103 | [5] -0.006

RBM23 isoform 2 (UniProt Q86U06)
inactive: [1] -0.118 | [2] -0.084 | [3] 0.06 | [4] 0.011 | [5] -0.002

RBM14 (UniProt Q96PK6)
inactive: [1] 0.191 | [2] -0.046 | [3] 0.008 | [4] 0.066 | [5] 0.044

— the supplement of paper PMC10849652
